PubChem BioAssay AID1347422 (Sanford-Burnham Center for Chemical Genomics, 2020)
Whole data set: some 1,000 compounds, median “thermal shift dTm” near 0.19, cut for the highest 2% near 1.7. The list shows a part of the results. Calls of active or inactive are those of the source.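 The calls were made as follows: active = mean rise in melting temperature of at least 1 degC over same-plate control wells; inactive = below that, where a call was filed.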

The chains behind the UniProt entries cited, without tags or fusion partners. Where a name states a change or a piece, a line headed by the entry shows the natural chain unless it says otherwise.
UniProt O00391: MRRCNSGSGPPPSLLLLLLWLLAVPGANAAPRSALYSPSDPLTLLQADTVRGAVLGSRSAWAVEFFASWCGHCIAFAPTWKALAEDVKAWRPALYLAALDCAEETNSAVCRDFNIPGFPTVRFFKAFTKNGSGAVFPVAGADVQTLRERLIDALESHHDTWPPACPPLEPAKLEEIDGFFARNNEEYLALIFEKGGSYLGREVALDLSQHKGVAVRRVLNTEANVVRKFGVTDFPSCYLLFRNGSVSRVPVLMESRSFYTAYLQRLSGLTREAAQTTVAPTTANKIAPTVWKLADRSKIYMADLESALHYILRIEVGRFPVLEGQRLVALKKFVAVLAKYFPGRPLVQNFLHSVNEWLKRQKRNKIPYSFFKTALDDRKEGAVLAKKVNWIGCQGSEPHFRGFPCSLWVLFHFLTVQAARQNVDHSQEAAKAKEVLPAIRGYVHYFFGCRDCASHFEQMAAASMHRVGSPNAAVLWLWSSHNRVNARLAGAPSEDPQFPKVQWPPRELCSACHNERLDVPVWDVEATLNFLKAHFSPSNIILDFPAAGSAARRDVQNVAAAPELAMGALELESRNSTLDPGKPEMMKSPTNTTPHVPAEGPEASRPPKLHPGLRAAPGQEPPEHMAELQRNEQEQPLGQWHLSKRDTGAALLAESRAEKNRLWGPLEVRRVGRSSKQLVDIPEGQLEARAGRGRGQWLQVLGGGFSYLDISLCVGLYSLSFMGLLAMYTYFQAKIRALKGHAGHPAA

molecular target: Sulfhydryl oxidase 1 (Homo sapiens) (UniProt O00391); assay: ligand-induced melting shift of human QSOX1 – biophysical, protein thermal shift, single concentration, QSOX1 inhibitor project, confirmation (AID 1347422); conditions: recombinant hQSOX1 thermal shift, Sypro Orange, at 25 µM, stronger effect = higher value;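 also: dTm is compound Tm minus mean Tm of DMSO-only wells on that plate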

| SMILES | thermal shift dTm |
| --- | --- |
| O=C(Nc1ccc(Cl)cc1)Nc1ccc(S(=O)(=O)Nc2ncccn2)cc1 | active: 1.03 °C |
| O=C(CCc1ccccc1)n1nc(-c2ccco2)nc1NCc1cccs1 | 0.05 °C |
| COc1ccc(OC)c(NC(=O)c2ccc(C)c(S(=O)(=O)Nc3ccc(C)cc3)c2)c1 | 0.05 °C |
| CCOc1ccc(NC(=O)Nc2cc(C)ccc2OC)cc1 | 0.34 °C |
| COc1ccc(-c2noc(-c3ccccc3C(=O)Nc3ccc(NC(C)=O)cc3)n2)cc1 | 0.15 °C |
| Cc1cc(C(=O)Nc2ccncc2)sc1-c1ccccc1 | 0.04 °C |
| N#Cc1sc2nc(-c3ccc(F)cc3F)ccc2c1N | 0.51 °C |
| CC1CCc2c(sc3ncn(CC(=O)Nc4ccccc4F)c(=O)c23)C1 (configuration not stated) | 0.26 °C |
| COc1cc(-c2cccc(-c3ccn[nH]3)c2)ccc1NC(C)=O | 0.14 °C |
| COc1ccc(NC(=O)Nc2ccc3c(c2)CCC3)cc1OC | 0.19 °C |
| COc1ccc(NC(=O)CSc2nncc(=O)[nH]2)cc1Cl | 0.18 °C |
| Clc1ccc(CSCCc2nc(-c3ccccn3)no2)cc1Cl | inactive: -0.08 °C |
| Cc1cc(C)c(C)c(S(=O)(=O)Nc2ccc(C(N)=O)cc2)c1C | 0.1 °C |
| COc1ccc(-c2noc(CSc3nc(-c4ccccc4)cc(=O)[nH]3)n2)cc1OC | 0.11 °C |
| COc1ccc(C(=O)CCC(=O)Nc2ccc(Cl)c(Cl)c2)cc1OC | 0.57 °C |
| O=C(Nc1cccc(-c2noc(COc3ccccc3)n2)c1)c1ccco1 | 0.24 °C |
| COc1ccc(C(=O)NC(C)Cc2c[nH]c3ccccc23)cc1 (configuration not stated) | 0.47 °C |
| Cc1nnc(NC(=O)c2ccc(NC(=O)c3ccco3)cc2)s1 | 0.7 °C |
| Cc1cc(C(=O)OCC(=O)Nc2ccc(Cl)cc2)c2ccccc2n1 | inactive: -0.03 °C |
| CCOCCOc1cccc(NC(=O)Nc2ccccc2)c1 | 0.23 °C |
| O=C(COc1ccccc1Cl)Nc1cccc(NC(=O)c2ccco2)c1 | 0.15 °C |
| COc1ccc(C(C)NC(=O)c2sc3ccccc3c2Cl)cc1OC (configuration not stated) | 0.15 °C |
| CC(C)(C)c1ccc(OCCNC(=O)c2cccc(Br)c2)cc1 | 0.81 °C |
| O=C(Nc1cccc(Cl)c1)N1CCN(Cc2ccco2)CC1 | inactive: 0 °C |

| SMILES | thermal shift dTm |
| --- | --- |
| O=C(Nc1ccc(C(F)(F)F)cc1Cl)c1cc([N+](=O)[O-])[nH]n1 | active: 1.73 °C |
| CSc1ccccc1NC(=O)Nc1cccc(F)c1 | 0.24 °C |
| Cc1cc(NC(=O)Cn2nc(/C=C/c3ccccc3)c3ccccc32)n(C)n1 | 0.18 °C |
| Cc1ccc2nc(-c3ccc(N=Cc4ccc(O)cc4)cc3)sc2c1 | 0.01 °C |
| Cc1onc(-c2cccs2)c1-c1nn2c(-c3ccco3)nnc2s1 | active: 1.23 °C |
| COc1ccc(NC(=O)Nc2cccc3cccnc23)cc1 | 0.25 °C |
| COc1ccc(C(=O)N/C(=C/c2ccc(Br)cc2)c2nc3ccccc3[nH]2)cc1 | 0.1 °C |
| CCC(c1ccccc1)c1nnc(NC(=O)Nc2ccccc2F)s1 (configuration not stated) | 0.2 °C |
| NC(=O)c1cc(Cc2ccccc2)sc1NC(=O)c1cccs1 | active: 1.07 °C |
| Ic1ccc(OCCCCOc2cccc3cccnc23)cc1 | 0.15 °C |
| O=C(Nc1ccc(-c2cnc(-c3ccc(NC(=O)C4CC4)cc3)nc2)cc1)C1CC1 | 0.58 °C |
| CNC(=O)c1cc(S(=O)(=O)Nc2ccc(NC(=O)c3ccccc3)cc2)cs1 | 0.61 °C |
| CN(c1cccc(NC(=O)Nc2ccccc2)c1)S(C)(=O)=O | 0.23 °C |
| Cc1nc(-c2cccnc2)sc1C(=O)Nc1cccc(Br)c1 | inactive: -0.88 °C |
| Cc1c(Cl)cccc1Nc1nc(-c2ccncc2)cs1 | inactive: -0.03 °C |
| CCc1ccc(-c2cn3cc(C)sc3n2)cc1 | inactive: -0.08 °C |
| CCOc1ccc2nc(NC(=O)CCCCC(=O)O)sc2c1 | inactive: -0.04 °C |
| O=C(Nc1cccc(OCc2ccccc2)c1)c1ccco1 | 0.23 °C |
| COc1cccc(C(=O)Nc2nc3ccc(Cl)cc3s2)c1 | 0.62 °C |
| Cc1ccc(NC(=O)Nc2ccc(Br)cc2)nc1 | 0.28 °C |
| COc1ccc(-c2cnc3c(-c4ccc(OC)cc4)cnn3c2N)cc1 | 0.06 °C |
| CCN(CC)c1nc(C2=C[C+]=C([N+](=O)[O-])C=C2)nc2ccccc12 | 0.02 °C |
| C(=C\c1nnc(-c2ccccc2)o1)/c1cc2ccccc2o1 | 0.18 °C |
| Cc1ccc(NC(=O)Cc2cccs2)nc1 | 0.09 °C |

| SMILES | thermal shift dTm |
| --- | --- |
| COc1ccc(NC(=O)Nc2cccnc2)cc1 | 0.28 °C |
| Cc1cnc(CNCc2ccccc2OCC(O)CN(C)C2CCCCC2)cn1 (configuration not stated) | 0.14 °C |
| NC(=O)c1cccc(OCc2cccc(Br)c2)c1 | 0.14 °C |
| Cc1c(-c2cccc(Cl)c2)nc2ccccc2c1C(=O)NCCc1ccccc1 | 0.72 °C |
| NC(=O)c1ccc(NC(=O)Nc2cccc3ccccc23)cc1 | inactive: -1.99 °C |
| CCn1c(=O)c(C(=O)Nc2cccc(O)c2)c(O)c2ccccc21 | 0.15 °C |
| c1ccc(CNc2ncnc3scc(C4COc5ccccc5O4)c23)cc1 (configuration not stated) | 0.77 °C |
| COc1ccc(-c2csc(Nc3ccc(Cl)cn3)n2)cc1 | 0.16 °C |
| Cc1cc(NC(=O)c2ccccn2)ccc1NC(=O)c1cc2ccccc2o1 | 0.19 °C |
| O=C(Nc1ccc2c(c1)OCO2)c1csc2ccccc12 | 0.65 °C |
| N#CC1=C(N)Oc2cc(N)ccc2C1c1ccc(-c2ccccc2)cc1 (configuration not stated) | 0.25 °C |
| COc1ccc(C(=O)Nc2ccc(-n3nc(C)c4ccccc4c3=O)cc2)cc1OC | 0.15 °C |
| COc1ccc(-c2noc(-c3cccc(NC(C)=O)c3)n2)cc1 | 0.24 °C |
| O=C(Nc1ccc2c(c1)OCCO2)c1cccc(NC(=O)c2ccco2)c1 | 0.09 °C |
| CCCn1c(NCc2ccc(Br)cc2)nc2ccccc21 | 0.49 °C |
| O=C(NC(=O)C(Cl)(Cl)Cl)Nc1ccc(Cl)c(Cl)c1 | 0.47 °C |
| CCC(=O)Nc1ccc(NC(=O)COc2ccc(C)cc2C)cc1 | 0.15 °C |
| CCOc1ccc(C(=O)Nc2cccc(-c3csc(C)n3)c2)cc1 | inactive: -0.65 °C |
| O=C(CCCN1C(=O)c2ccccc2C1=O)Oc1ccc(-c2ccccc2)cc1 | 0.21 °C |
| C=CCSC1=N/C(=C\c2cc3c(cc2Br)OCO3)C(=O)S1 | 0.77 °C |
| CC(=O)Nc1ccc(NC(=O)Nc2ccccc2Cl)cc1 | 0.94 °C |
| CCc1ccccc1NC(=O)Nc1cccc(F)c1 | 0.38 °C |
| CCS(=O)(=O)Nc1ccc(C(=O)Nc2cccc(SC)c2)cc1 | 0.28 °C |
| COc1ccc(NC(=O)CSc2nnc(C)c(=O)[nH]2)cc1Cl | 0.32 °C |

Among those listed so far, 2 have a nitro group on carbon:

| SMILES | thermal shift dTm |
| --- | --- |
| O=C(Nc1ccc(C(F)(F)F)cc1Cl)c1cc([N+](=O)[O-])[nH]n1 | active: 1.73 °C |
| CCN(CC)c1nc(C2=C[C+]=C([N+](=O)[O-])C=C2)nc2ccccc12 | 0.02 °C |
